This data set is described as follows: Organic light emitting device evaluation with the compound as dopant of the light emitting layer. The settings on record: for Driving voltage (V @10 mA/cm^2): device with compound as dopant of light emitting layer (2:98 with Compound D); for EQE (% @10 mA/cm^2): external quantum efficiency, device with compound as dopant of light emitting layer; for Lifetime (hr) (T90 @500 nit): time for luminance to fall to 90% of initial luminance (500 nit), 10 mA/cm^2. On the procedure:
A glass substrate thinly coated with indium tin oxide (ITO) to have a thickness of 500 Å was put into distilled water in which a detergent was dissolved, and ultrasonically washed. In this case, a product manufactured by Fischer Co., was used as the detergent, and distilled water twice filtered using a filter manufactured by Millipore Co., was used as the distilled water. After the ITO was washed for 30 minutes, ultrasonic washing was conducted twice repeatedly using distilled water for 10 minutes. After the washing using distilled water was completed, ultrasonic washing was conducted using isopropyl, and acetone solvents, and drying was conducted, and then the substrate was cleaned for 5 minutes, and then transferred to a glove box.
A coating composition, in which the following Compound B and the following Compound C (weight ratio of 2:8) were dissolved in 20 wt/v % cyclohexanone, was spin-coated (4000 rpm) on the ITO transparent electrode, and heat-treated (cured) at 200° C. for 30 minutes to form a hole injection layer with a thickness of 400 Å. A coating composition, in which the following Compound A (Mn: 27,900; Mw: 35,600; measured by gel permeation chromatography (GPC) on Agilent 1200 series, relative to PC standards) was dissolved in 6 wt/v % toluene, spin-coated (4000 rpm) on the hole injection layer, and heat-treated at 200° C. for 30 minutes to form a hole transport layer with a thickness of 200 Å.
A coating composition, in which Compound 1 prepared in Preparation Example 1 and the following Compound D (weight ratio of 2:98) were dissolved in 2 wt/v % cyclohexanone, spin-coated (4000 rpm) on the hole transport layer, and heat-treated at 180° C. for 30 minutes to form a light emitting layer with a thickness of 400 Å.
After being transferred to a vacuum depositor, the following Compound E was vacuum-deposited to a thickness of 350 Å on the light emitting layer to form an electron injection and transport layer.
LiF and aluminum were sequentially deposited to have a thickness of 10 Å and 1000 Å, respectively, on the electron injection and transport layer, thereby forming a cathode.
In the above-mentioned process, the vapor deposition rate of the organic material was maintained at 0.4 to 0.7 Å/sec, the deposition rate of LiF was maintained at 0.3 Å/sec, the deposition rate of aluminum was maintained at 2 Å/sec, and the degree of vacuum during the deposition was maintained at 2×10^−7 to 5×10^−8 torr.
An organic light emitting device was manufactured in the same manner as in Example 1, except that the compounds shown in Table 2 below were used instead of Compound 1 as a dopant of the light emitting layer.
An organic light emitting device was manufactured in the same manner as in Example 1, except that the compounds shown in Table 2 below were used instead of Compound 1 as a dopant in the light emitting layer.
The driving voltage, external quantum efficiency (EQE), and lifetime were measured by applying a current of 10 mA/cm^2 to the organic light emitting devices manufactured in the Examples and Comparative Examples, and the results are shown in Table 2 below. At this time, the external quantum efficiency (EQE) was calculated as “(the number of emitted photon)/(the number of injected charge carrier)*100”, and T90 means the time required for the luminance to be reduced to 90% of the initial luminance (500 nit).

Structures are written as SMILES.

On to `c1ccc(N(c2ccc3cc(-c4cc5ccccc5o4)ccc3c2)c2ccc3c(ccc4c5ccc6c7ccc8cc(N(c9ccccc9)c9ccc%10cc(-c%11cc%12ccccc%12o%11)ccc%10c9)ccc8c7n(-c7ccccc7)c6c5n(-c5ccccc5)c34)c2)cc1` [Compound 15], for which the “Driving voltage (V @10 mA/cm^2)” value was determined as 4.71 V, the “EQE (% @10 mA/cm^2)” value is recorded as 8.64% and the “Lifetime (hr) (T90 @500 nit)” value turned out to be 135 h.
Taken in the same sequence, the figures for `c1ccc(-n2c3ccccc3c3cc(-c4ccc(N(c5ccc6ccccc6c5)c5ccc6c(ccc7c8c(ccc9c%10ccc%11cc(N(c%12ccc(-c%13ccc%14c(c%13)c%13ccccc%13n%14-c%13ccccc%13)cc%12)c%12ccc%13ccccc%13c%12)ccc%11c%10n(-c%10ccccc%10)c98)n(-c8ccccc8)c67)c5)cc4)ccc32)cc1` [Compound 6] were 4.61 V, 8.78% and 127 h.
Taken in the same sequence, the figures for `c1ccc(-n2c3ccccc3c3cc(-c4ccc(N(c5ccc6ccccc6c5)c5ccc6c7c8ccc9c(c8ccc7n(-c7ccccc7)c6c5)c5ccc(N(c6ccc(-c7ccc8c(c7)c7ccccc7n8-c7ccccc7)cc6)c6ccc7ccccc7c6)cc5n9-c5ccccc5)cc4)ccc32)cc1` [Compound H, reference compound] were 4.66 V, 7.11% and 67 h.
Taken in the same sequence, the figures for `c1ccc(N(c2ccc3cc(-c4cc5ccccc5o4)ccc3c2)c2ccc3c(ccc4c5c(ccc6c7ccc8cc(N(c9ccccc9)c9ccc%10cc(-c%11cc%12ccccc%12o%11)ccc%10c9)ccc8c7n(-c7ccccc7)c65)n(-c5ccccc5)c34)c2)cc1` [Compound 11] were 4.45 V, 8.72% and 137 h.
In the case of `c1ccc(N(c2ccc3cc(-c4cc5ccccc5o4)ccc3c2)c2ccc3c(ccc4c5c6c7ccc8cc(N(c9ccccc9)c9ccc%10cc(-c%11cc%12ccccc%12o%11)ccc%10c9)ccc8c7n(-c7ccccc7)c6ccc5n(-c5ccccc5)c34)c2)cc1` [Compound 14], the “Driving voltage (V @10 mA/cm^2)” value was determined as 4.63 V, the “EQE (% @10 mA/cm^2)” value is recorded as 8.67% and the “Lifetime (hr) (T90 @500 nit)” value was 137 h.
Turning to `Cc1cccc(N(c2ccc3c4c5ccc6c(c5ccc4n(-c4ccccc4)c3c2)c2ccc(N(c3cccc(C)c3)c3cccc4c3oc3ccccc34)cc2n6-c2ccccc2)c2cccc3c2oc2ccccc23)c1` [Compound F, reference compound], the “Driving voltage (V @10 mA/cm^2)” value worked out at 4.70 V, the “EQE (% @10 mA/cm^2)” value came to 6.87% and the “Lifetime (hr) (T90 @500 nit)” value is 58 h.
Taken in the same sequence, the figures for `Cc1cccc(N(c2ccc3c(ccc4c5cc6c7ccc8cc(N(c9cccc(C)c9)c9cccc%10c9oc9ccccc9%10)ccc8c7n(-c7ccccc7)c6cc5n(-c5ccccc5)c34)c2)c2cccc3c2oc2ccccc23)c1` [Compound 2] were 4.69 V, 8.87% and 133 h.
In the case of `c1ccc(-n2c3ccccc3c3cc(-c4ccc(N(c5ccc6ccccc6c5)c5ccc6c(ccc7c8cc9c(cc8n(-c8ccccc8)c67)c6ccc7cc(N(c8ccc(-c%10ccc%11c(c%10)c%10ccccc%10n%11-c%10ccccc%10)cc8)c8ccc%10ccccc%10c8)ccc7c6n9-c6ccccc6)c5)cc4)ccc32)cc1` [Compound 8], the “Driving voltage (V @10 mA/cm^2)” value is recorded as 4.67 V, the “EQE (% @10 mA/cm^2)” value amounted to 8.57% and the “Lifetime (hr) (T90 @500 nit)” value worked out at 140 h.
Consider `CC(C)(C)c1ccc(N(c2ccc(C(C)(C)C)cc2)c2ccc3c4c5ccc6c(c5ccc4n(-c4ccccc4)c3c2)c2ccc(N(c3ccc(C(C)(C)C)cc3)c3ccc(C(C)(C)C)cc3)cc2n6-c2ccccc2)cc1` [Compound G, reference compound], for which the “Driving voltage (V @10 mA/cm^2)” value is given as 4.68 V, the “EQE (% @10 mA/cm^2)” value is 7.11% and the “Lifetime (hr) (T90 @500 nit)” value was determined as 67 h.
Turning to `Cc1cccc(N(c2ccc3c(ccc4c5cc6c(cc5n(-c5ccccc5)c34)c3ccc4cc(N(c5cccc(C)c5)c5cccc7c5oc5ccccc57)ccc4c3n6-c3ccccc3)c2)c2cccc3c2oc2ccccc23)c1` [Compound 3], the “Driving voltage (V @10 mA/cm^2)” value worked out at 4.64 V, the “EQE (% @10 mA/cm^2)” value is 8.69% and the “Lifetime (hr) (T90 @500 nit)” value worked out at 142 h.
Taken in the same sequence, the figures for `CC1(C)c2ccccc2-c2ccc(-n3c4cc5c6ccc7cc(N(c8ccccc8)c8ccc9cc(-c%10cc%11ccccc%11o%10)ccc9c8)ccc7c6n(-c6ccc7c(c6)C(C)(C)c6ccccc6-7)c5cc4c4ccc5cc(N(c6ccccc6)c6ccc7cc(-c8cc9ccccc9o8)ccc7c6)ccc5c43)cc21` [Compound 16] were 4.62 V, 8.75% and 142 h.
On to `Cc1cccc(N(c2ccc3c(ccc4c5ccc6c7ccc8cc(N(c9cccc(C)c9)c9cccc%10c9oc9ccccc9%10)ccc8c7n(-c7ccccc7)c6c5n(-c5ccccc5)c34)c2)c2cccc3c2oc2ccccc23)c1` [Compound 5], for which the “Driving voltage (V @10 mA/cm^2)” value came out at 4.69 V, the “EQE (% @10 mA/cm^2)” value amounted to 8.69% and the “Lifetime (hr) (T90 @500 nit)” value was 130 h.
Regarding `c1ccc(N(c2ccc3cc(-c4cc5ccccc5o4)ccc3c2)c2ccc3c(ccc4c5cc6c7ccc8cc(N(c9ccccc9)c9ccc%10cc(-c%11cc%12ccccc%12o%11)ccc%10c9)ccc8c7n(-c7ccccc7)c6cc5n(-c5ccccc5)c34)c2)cc1` [Compound 12], the “Driving voltage (V @10 mA/cm^2)” value is listed as 4.68 V, the “EQE (% @10 mA/cm^2)” value is recorded as 8.80% and the “Lifetime (hr) (T90 @500 nit)” value came out at 129 h.
Taken in the same sequence, the figures for `[2H]c1c([2H])c([2H])c(-n2c3cc4c5ccc6cc(N(c7ccccc7)c7ccc8cc(-c9cc%10ccccc%10o9)ccc8c7)ccc6c5n(-c5c([2H])c([2H])c([2H])c([2H])c5[2H])c4cc3c3ccc4cc(N(c5ccccc5)c5ccc6cc(-c7cc8ccccc8o7)ccc6c5)ccc4c32)c([2H])c1[2H]` [Compound 17] were 4.65 V, 8.52% and 143 h.
`Cc1cccc(N(c2ccc3c(ccc4c5c6c7ccc8cc(N(c9cccc(C)c9)c9cccc%10c9oc9ccccc9%10)ccc8c7n(-c7ccccc7)c6ccc5n(-c5ccccc5)c34)c2)c2cccc3c2oc2ccccc23)c1` [Compound 4]: the “Driving voltage (V @10 mA/cm^2)” value came to 4.62 V, the “EQE (% @10 mA/cm^2)” value worked out at 8.87% and the “Lifetime (hr) (T90 @500 nit)” value was determined as 129 h.
Taken in the same sequence, the figures for `c1ccc(-n2c3ccccc3c3cc(-c4ccc(N(c5ccc6ccccc6c5)c5ccc6c(ccc7c8cc9c%10ccc%11cc(N(c%12ccc(-c%13ccc%14c(c%13)c%13ccccc%13n%14-c%13ccccc%13)cc%12)c%12ccc%13ccccc%13c%12)ccc%11c%10n(-c%10ccccc%10)c9cc8n(-c8ccccc8)c67)c5)cc4)ccc32)cc1` [Compound 7] were 4.62 V, 8.96% and 138 h.
The corresponding values for `Cc1cccc(N(c2ccc3c(ccc4c5c(ccc6c7ccc8cc(N(c9cccc(C)c9)c9cccc%10c9oc9ccccc9%10)ccc8c7n(-c7ccccc7)c65)n(-c5ccccc5)c34)c2)c2cccc3c2oc2ccccc23)c1` [Compound 1] are 4.68 V, 8.89% and 131 h.
Taken in the same sequence, the figures for `c1ccc(-n2c3ccccc3c3cc(-c4ccc(N(c5ccc6ccccc6c5)c5ccc6c(ccc7c8ccc9c%10ccc%11cc(N(c%12ccc(-c%13ccc%14c(c%13)c%13ccccc%13n%14-c%13ccccc%13)cc%12)c%12ccc%13ccccc%13c%12)ccc%11c%10n(-c%10ccccc%10)c9c8n(-c8ccccc8)c67)c5)cc4)ccc32)cc1` [Compound 10] were 4.52 V, 8.69% and 129 h.

The values above are taken from patent US12538701B2, “Compound and organic light emitting device comprising the same” (LG Chem, Ltd., priority 2020, dated 2026).
